Results on one substance are retold here after paper PMC8425213.

The chains behind the UniProt entries cited, without tags or fusion partners.
UniProt P35222: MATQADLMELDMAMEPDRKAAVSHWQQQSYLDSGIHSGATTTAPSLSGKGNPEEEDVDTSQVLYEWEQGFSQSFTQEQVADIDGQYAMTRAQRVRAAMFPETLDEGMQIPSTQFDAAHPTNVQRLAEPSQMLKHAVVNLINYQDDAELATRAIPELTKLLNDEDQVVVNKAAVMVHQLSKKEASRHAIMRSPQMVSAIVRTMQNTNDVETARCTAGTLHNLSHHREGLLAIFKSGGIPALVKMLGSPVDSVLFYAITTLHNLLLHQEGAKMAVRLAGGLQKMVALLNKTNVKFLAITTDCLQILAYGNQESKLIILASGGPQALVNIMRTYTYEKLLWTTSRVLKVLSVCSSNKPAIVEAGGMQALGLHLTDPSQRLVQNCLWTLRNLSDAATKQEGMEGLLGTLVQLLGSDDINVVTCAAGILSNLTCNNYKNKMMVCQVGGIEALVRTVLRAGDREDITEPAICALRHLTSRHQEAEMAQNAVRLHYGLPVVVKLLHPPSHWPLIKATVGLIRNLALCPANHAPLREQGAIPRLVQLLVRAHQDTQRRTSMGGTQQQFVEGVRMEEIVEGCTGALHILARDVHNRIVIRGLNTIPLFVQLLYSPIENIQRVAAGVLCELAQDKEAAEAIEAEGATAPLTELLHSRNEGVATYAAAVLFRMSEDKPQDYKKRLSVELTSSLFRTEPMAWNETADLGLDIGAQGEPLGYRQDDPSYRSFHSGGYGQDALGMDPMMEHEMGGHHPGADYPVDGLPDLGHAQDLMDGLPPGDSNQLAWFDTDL
UniProt O15169: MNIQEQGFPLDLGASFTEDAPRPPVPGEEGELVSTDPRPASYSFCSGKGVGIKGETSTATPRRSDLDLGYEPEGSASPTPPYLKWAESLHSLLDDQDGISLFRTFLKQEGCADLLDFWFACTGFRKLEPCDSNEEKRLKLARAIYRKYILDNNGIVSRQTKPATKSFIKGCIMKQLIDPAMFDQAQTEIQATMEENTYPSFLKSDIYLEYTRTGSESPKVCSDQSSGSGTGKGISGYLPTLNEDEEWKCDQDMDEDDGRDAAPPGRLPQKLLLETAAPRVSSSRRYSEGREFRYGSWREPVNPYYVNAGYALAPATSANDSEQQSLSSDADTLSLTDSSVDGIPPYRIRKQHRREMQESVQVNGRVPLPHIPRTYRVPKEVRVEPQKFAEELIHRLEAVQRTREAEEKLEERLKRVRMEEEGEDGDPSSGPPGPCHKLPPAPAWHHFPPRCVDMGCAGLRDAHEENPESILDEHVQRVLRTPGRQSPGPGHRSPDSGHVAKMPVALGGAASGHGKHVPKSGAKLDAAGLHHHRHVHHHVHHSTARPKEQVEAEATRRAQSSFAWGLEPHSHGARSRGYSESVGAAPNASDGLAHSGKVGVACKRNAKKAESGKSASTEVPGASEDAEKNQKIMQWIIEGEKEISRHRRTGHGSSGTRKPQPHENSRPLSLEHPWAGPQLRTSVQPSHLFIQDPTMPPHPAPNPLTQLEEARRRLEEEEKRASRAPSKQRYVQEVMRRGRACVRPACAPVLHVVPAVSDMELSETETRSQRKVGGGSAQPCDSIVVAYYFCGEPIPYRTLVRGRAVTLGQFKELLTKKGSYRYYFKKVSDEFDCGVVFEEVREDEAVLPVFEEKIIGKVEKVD

These are yes or no findings as the source states them, for the method shown. Binding seen in cells or lysates may run through a third protein. Some entries that bind do so weakly or less than the wild type.

This assay deals with β-catenin (human (endogenous in A549, NCI-H1299, NCI-H460)) (UniProt P35222). Nature of the assay: co-IP; anti-β-catenin antibody and protein-G sepharose on whole cell lysates of A549, NCI-H1299 and NCI-H460 cells, with or without 10 μM OP-B treatment; lysis buffer 1% Triton X-100, 150 mM NaCl, 50 mM HEPES pH 7.6; overnight at 4 °C; beads washed 4 times with RIPA buffer; Axin detected by western blot. A general note: Immunoblotting shows a protein as a band on a membrane.

Turning to Axin1 (from UniProt O15169 1-862), the binding entry is listed as “binds”.
